Measurements taken from PubChem BioAssay AID1487 (National Center for Advancing Translational Sciences (NCATS), 2009).
This is one part of the list. Further columns of the screen follow, without active or inactive calls. The list favours compounds with an active or inconclusive main result. Potencies come from curve fits of mixed quality, noted in brackets.

Assay: qHTS Assay for Modulators of Lamin A Splicing
Settings: HeLa LMNA splicing GFP/RFP minigene ratio, 48 h
Outline: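 Read-out is the ratio of GFP to DsRed2 object intensity, acquired by 488 nm laser-scanning cytometry on HeLa lamin A-EGFP minigene reporter cells. Compound incubation 48 hrs at 37 °C in Opti-MEM with 2% FBS; DMSO 0.5% final.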

[1] = measured here: GFP splicing reporter channel
[2] = measured here: RFP viability control channel

SMILES	AC50 [1]	AC50 [2]
CCc1c(C)nc(SCc2nc(-c3ccccc3C)no2)[nH]c1=O	35.5 µM [falling, single point]	
Cc1ccc(NC2=C(CC(=O)O)C(c3ccccc3)N(c3ccc(C)cc3)C2=O)cc1 (stereo not given)		11.2 µM [rising, partial curve, poor fit]
Cc1nnc(SC(C(=O)Nc2ccc(Cl)c([N+](=O)[O-])c2)c2ccccc2)[nH]c1=O (stereo not given)	0.112 µM [falling, full curve, poor fit]	0.00794 µM [falling, full curve, poor fit]
CN(CC(=O)Nc1ccc(N2CCOCC2)cc1)C(=O)CC(c1ccccc1)c1ccccc1	1 µM [falling, full curve, poor fit]	0.891 µM [falling, full curve, poor fit]
COc1ccc(OC)c(CNc2ncnc3c2nc2n3CCCC2)c1		22.4 µM [rising, single point]
Cc1oc(-c2ccc(Cl)cc2)nc1CN1CCCC(C(=O)NCc2ccccn2)C1 (stereo not given)	14.1 µM [rising, single point]	22.4 µM [rising, single point]
Cc1cc(=O)oc2cc(OCC(=O)NCCCN3CCOCC3)ccc12		6.31 µM [falling, single point]
CCOC(=O)c1csc(NC(=O)c2ccc(S(=O)(=O)N(C)C)cc2)n1	12.6 µM [rising, partial curve, poor fit]	12.6 µM [rising, partial curve]
COc1cc(S(=O)(=O)N2CCN(C(=O)c3ccccc3)CC2)c(OC)cc1Br		0.00447 µM [falling, full curve, poor fit]
CC(C)Oc1ccccc1C1CC(=O)Nc2cc3c(cc21)OCCO3 (stereo not given)		2.51 µM [rising, full curve]
Cc1ccccc1N/C(SCc1ccc(Cl)cc1)=C(/C#N)C(N)=O	35.5 µM [rising, single point]	35.5 µM [rising, single point]
CC(=O)c1ccc(NC(=O)CSc2nccn2CCc2ccccc2)cc1		31.6 µM [rising, single point]
O=S(=O)(Nc1cc2nc3ccccc3nc2n1Cc1ccccc1)c1ccc(Cl)cc1	7.08 µM [rising, full curve]	12.6 µM [rising, partial curve]
C=CCN1c2ccccc2[C@]23C[C@@H](C(=O)OC)N(C(=O)COCc4ccccc4)C2=NC(C(=O)OC)=C(C(=O)OC)[C@H]13	0.891 µM [rising, single point]	
CN1CCCC1CCOC(C)(c1ccccc1)c1ccc(Cl)cc1 (stereo not given)	5.01 µM [falling, full curve, poor fit]	4.47 µM [falling, full curve]
CC1=C(c2ccc(Cl)cc2)S(=O)(=O)N=C1N1CCC(C(=O)NCCc2ccco2)CC1		1.12 µM [falling, partial curve]
Cc1nc(SCc2nc3ccccc3[nH]2)c2oc3ccccc3c2n1	10 µM [falling, single point]	
CCn1c(=S)[nH]c2sc3c(c2c1=O)CCCCC3		7.08 µM [rising, partial curve, poor fit]
CCCCNc1c2c3c(cccc3n(C)c1=O)C(=O)c1ccccc1-2	15.8 µM [falling, single point]	15.8 µM [falling, single point]
CCOc1cc(CNc2ncn[nH]2)ccc1OCC(=O)NC(C)(C)C	35.5 µM [falling, single point]	
CCOc1ccc(Nc2c3c(nc4ncnn24)CC(C)CC3)cc1 (stereo not given)		12.6 µM [rising, single point]
NC(=O)N/N=C/c1ccc(N2CCOCC2)s1		35.5 µM [falling, single point]
N#Cc1ccc(NC(=O)Nc2ccc(Cl)cc2)cc1	7.08 µM [rising, full curve, poor fit]	5.01 µM [rising, full curve, poor fit]
c1ccc2c(c1)CC/C2=N/Nc1nc2ccccc2[nH]1	15.8 µM [rising, partial curve]	11.2 µM [rising, partial curve]
CN(C)S(=O)(=O)N1CCN(CC(O)COc2ccc3cc(Br)ccc3c2)CC1 (stereo not given)	14.1 µM [rising, partial curve]	25.1 µM [rising, partial curve]
Cc1cc(C(=O)OCC(=O)NC2CCS(=O)(=O)C2)c(C)n1-c1ccccc1 (stereo not given)		15.8 µM [rising, partial curve, poor fit]
C=CCN(CC=C)C(=S)NC(=O)c1ccc(C)c(Br)c1	11.2 µM [rising, partial curve]	22.4 µM [rising, single point]

Filtered by structure, the entries above containing two or more sulfur atoms
SMILES	AC50 [1]	AC50 [2]
CCOC(=O)c1csc(NC(=O)c2ccc(S(=O)(=O)N(C)C)cc2)n1	12.6 µM [rising, partial curve, poor fit]	12.6 µM [rising, partial curve]
CCn1c(=S)[nH]c2sc3c(c2c1=O)CCCCC3		7.08 µM [rising, partial curve, poor fit]

Reprinted at random: 2 compounds from above
SMILES	AC50 [1]	AC50 [2]
CCCCNc1c2c3c(cccc3n(C)c1=O)C(=O)c1ccccc1-2	15.8 µM [falling, single point]	15.8 µM [falling, single point]
NC(=O)N/N=C/c1ccc(N2CCOCC2)s1		35.5 µM [falling, single point]

The list goes on.

SMILES	AC50 [1]	AC50 [2]
CC(=O)c1ccc(C(=O)N(Cc2cccnc2)c2nc3c(C)c(C)ccc3s2)cc1		17.8 µM [rising, single point]
Cc1cc(Nc2c(C#N)c(N)nn2C)ccc1F	1.78 µM [falling, partial curve, poor fit]	
O=C(Cc1ccccc1F)Nc1cccc2cccnc12	20 µM [rising, single point]	35.5 µM [rising, single point]
N=c1c2c(ncn1Cc1ccco1)Oc1c(ccc3ccccc13)C2c1ccccc1 (stereo not given)	35.5 µM [falling, single point]	5.62 µM [rising, single point]
COC(=O)c1nc2n(n1)C(c1cc(OC)ccc1OC)C=C(c1ccc(Br)cc1)N2 (stereo not given)	17.8 µM [rising, partial curve, poor fit]	12.6 µM [rising, single point]
CCOc1cc(NC(=S)NCCCN2CCOCC2)c(OCC)cc1NC(=O)C1CCCCC1		28.2 µM [rising, single point]
CCOc1ccc(N(C)S(=O)(=O)c2ccc3[nH]cc(C(=O)NCC4CCCO4)c(=O)c3c2)cc1 (stereo not given)		31.6 µM [rising, single point]
O=C(NC1CCCCCC1)c1cc(-c2ccccn2)nc2ccccc12		3.98 µM [rising, full curve, poor fit]
COc1ccc(/C=N/NC(=O)c2cccc(COCC(F)(F)C(F)F)c2)cc1	11.2 µM [rising, single point]	
CCOC(=O)Cn1c(=O)c2c(nc(Br)n2Cc2ccccc2Cl)n(C)c1=O		20 µM [rising, single point]
CC(c1ccccc1)N(CC(=O)NC1CCCCC1)S(=O)(=O)c1cccc(C(F)(F)F)c1 (stereo not given)	11.2 µM [rising, single point]	15.8 µM [rising, single point]
COc1ccccc1CNC(=O)c1ccc(-n2c(C)cc3c2CCCC3)cc1	35.5 µM [falling, single point]	35.5 µM [falling, single point]
Clc1cccc(CSc2nnc(-c3ccccn3)n2Cc2ccco2)c1		28.2 µM [rising, single point]
CC1CCN(S(=O)(=O)c2cc(C(=O)NCc3ccccc3)n(C)c2)CC1		3.16 µM [rising, full curve, poor fit]
O=C(O)Cc1ccc(NC(=O)Nc2cccc(Cl)c2)cc1	6.31 µM [rising, partial curve, poor fit]	
COc1ccc(NC(=O)Nc2sc(NS(=O)(=O)c3ccccc3)nc2C)cc1	0.447 µM [rising, partial curve]	
O=S(=O)(NCCSc1ccc(Cl)cc1)c1ccc2c(c1)OCCO2	7.08 µM [rising, single point]	17.8 µM [rising, single point]
Cc1ccc(C(=O)COC(=O)c2cn(-c3ccccc3)nc2-c2ccccc2)cc1[N+](=O)[O-]		14.1 µM [rising, partial curve, poor fit]
CCC(C)NCC(=O)Nc1ccc(S(N)(=O)=O)cc1 (stereo not given)		0.2 µM [falling, full curve, poor fit]
C=CCNc1nc(Nc2ccc([N+](=O)[O-])cc2)nc(OCC)n1	35.5 µM [falling, single point]	22.4 µM [falling, single point]
CCOc1ccc(NC(=O)c2ccc(NC(=S)NC3CCCCC3)cc2)cc1	15.8 µM [falling, single point]	31.6 µM [falling, single point]
CC(=O)Nc1ccc(NC(=O)C(c2ccccc2)N2Cc3ccccc3C2=O)cc1 (stereo not given)	0.891 µM [falling, full curve, poor fit]	
CCn1c(N2CCN(C(=O)C34CC5CC(CC(C5)C3)C4)CC2)nc2ccccc21		11.2 µM [rising, partial curve, poor fit]
Cn1cc([N+](=O)[O-])c(C(=O)Nc2cnn(Cc3ccc(F)cc3)c2)n1		31.6 µM [rising, single point]
CCNC(=O)CC1C(=O)N(c2ccc(C)cc2)C(=O)N1CCc1sccc1C (stereo not given)		0.00891 µM [falling, full curve, poor fit]
O=C(CCCc1cccs1)N1CCN(S(=O)(=O)c2ccccc2Br)CC1		15.8 µM [rising, single point]
Fc1cccc2sc(Nc3nc4cc5c(cc4s3)OCO5)nc12	12.6 µM [rising, partial curve]	7.08 µM [rising, partial curve, poor fit]
